Experimental data as given in patent publication US20160076098A1, “METHODS OF DIAGNOSING AND TREATING CHRONIC PAIN” (priority 2013, published 2016).
Numbered stars: 1 amine (or outer) side, 2 acyl side, 3 side chain; on linkers, the order of the positions; unused ones are H or OH. Bridge positions count the residues as written; N and C are the ends. Square brackets hold non-standard residues; d marks the D form. Peptide text beside a SMILES is read from it. * marks the point of attachment. Orn(4R-OH,5R-OCH2CH2NMe3+) = C[N+](C)(C)CCO[C@@H](N[*:3])[C@H](O)C[C@H](N[*:1])C(=O)[*:2]; pTerphenylCO(4''-OnC5H11) = CCCCCOc1ccc(-c2ccc(-c3ccc(C(=O)*)cc3)cc2)cc1; hTyr(3S-OH,4S-OH) = N[C@H](C(=O)O)[C@H](O)[C@@H](O)c1ccc(O)cc1; Pro(3S-OH,4S-Me) = C[C@H]1CN[C@H](C(=O)O)[C@H]1O; Hyp = O=C(O)[C@@H]1C[C@@H](O)CN1

System: RAW 264.7 cells
Test: Exosomal RNA sequencing (NGS) of naive and LPS-stimulated RAW 264.7 cells
Assay type: cell-based, mouse
Conditions: for PS/cpntrol ratio: exosomal mRNA level after LPS stimulation of RAW 264.7 cells compared with exosomes from naive cells
Protocol: RAW 264.7 cells (ATCC) and RAW-Blue cells (Invivogen) were maintained in complete culture media (1×DMEM, 10% heat inactivated FBS). For exosome collection, RAW 264.7 cells (1×10^7) were plated in 150 mm dishes with complete culture media. At 24 hr, media was replaced with exosome-depleted media (1×DMEM, 10% heat-inactivated FBS depleted of exosomes by ultracentrifugation) with or without 1 μg/ml LPS (Sigma)) and incubated overnight. Media was collected in 50 ml tubes at 24 hr for exosome purification. Human THP1 macrophages were used in some experiments.
Exosome purification from cell culture media was performed as described (McDonald et al., 2013, J Visualized Exp 2013(76):e50294). Centrifugation was used to remove cell debris (500×g for 10 min); the supernatant was transferred and centrifuged (16,500×g for 20 min) Cell-free supernatants were filtered (0.22 μm; VWR, Radnor, Pa.) and exosomes were pelleted by ultracentrifugation (120,000×g for 70 min) The exosomal pellet was resuspended in buffer specific to downstream experiments and vortexed 2×15 seconds. For RNA purification, RNase inhibitors were added after the first centrifugation step at 1 U/ml (RNAsin Plus; Promega, Madison, Wis.) and at all subsequent steps at 1 U/μl. For purification from human samples, serum was diluted 1:1 with 1x PBS (−) Mg2+ and Ca2+(Corning 21-031-CV; Corning, N.Y.) and spun at 2000×g for 30 min at 4° C. The sample was transferred to a centrifuge tube and spun at 12,000×g for 45 min at 4° C., then transferred to an ultracentrifuge tube and spun at 110,000×g for 2 hr at 4° C. The pellet was resuspended in 1×PBS minus Mg^2+ and Ca^2+ and spun for an additional hour at 110,000×g before resuspension in RNA lysis buffer.
The SOLiD whole transcriptome analysis kit protocol with the fragmentation step omitted was used to generate a cDNA library for each sample. Total RNA, ranging in size from kilobases down to 10-mers, was purified from exosomes using the mirVana miRNA isolation kit (Life Technologies) following manufacturer's protocol. RNA concentration was measured using Nanodrop 1000 (NanoDrop Technologies, Wilmington, Del.). Total RNA from 3 independent exosome purifications was pooled to obtain 4 μg exosomal RNA per library (due to a limited amount of RNA in individual preparations), analyzed for integrity using the Agilent RNA 6000 Pico Kit (RNA integrity number between 1.6 and 2.1), and gel purified. Sequencing adapter ligation and cDNA reverse transcription were performed with SOLiD Total RNA-seq kit. DNA fragments in the target range of 150 to 500 bp were enriched using Agencourt AMPure XP PCR bead capture purification (Beckman Coulter; Brea, Calif.) before sequencing 50-bp pieces with no paired ends. The SOLiD 5500XL high-throughput sequencing platform (Applied Biosystems, Carlsbad, Calif.) was used for sequencing.
Sequencing reads were aligned to the mouse reference genome version mm9 (July, 2007) and transcripts were assembled based on refGene annotations (dated Dec. 16th, 2012) obtained from the UCSC Genome Browser (Karolchik et al., 2014, Nucleic acids research 42(1):D764-770) and non-coding RNA transcript definitions (dated Dec. 19th, 2012) from the fRNAdb database (Kin et al., 2007, Nucleic acids research 35(Database issue):D145-148) at ncrna.org. Reads were mapped using the LifeScope Whole Transcriptome Pipeline with default parameters, which effectively maps RNA fragments down to 22 nucleotides in length. The Cufflinks algorithm (Trapnell et al., 2013, Nature biotechnology 31(1):46-53) was used for transcript assembly, abundance estimation and differential expression analysis, using the reference transcript annotation as a guide. Results generated from Cufflinks were investigated using the CummeRbund package (www.R-project.org). […]

[1] = exosomal mRNA level (NGS) in exosomes from LPS-stimulated RAW 264.7 cells
[2] = exosomal transcript level, exosomes from LPS-stimulated RAW 264.7 cells, NGS

For `CCCCCOc1ccc(-c2ccc(-c3ccc(C(=O)N[C@H]4C[C@@H](O)[C@@H](OCC[N+](C)(C)C)NC(=O)[C@@H]5[C@@H](O)[C@@H](C)CN5C(=O)[C@H]([C@@H](C)O)NC(=O)[C@H]([C@H](O)[C@@H](O)c5ccc(O)cc5)NC(=O)[C@@H]5C[C@@H](O)CN5C(=O)[C@H]([C@@H](C)O)NC4=O)cc3)cc2)cc1` [Cd101] ({pTerphenylCO(4''-OnC5H11)}-[Orn(4R-OH,5R-OCH2CH2NMe3+)]T[Hyp][hTyr(3S-OH,4S-OH)]T[Pro(3S-OH,4S-Me)]; lactam 1-C), the “FKPM LPS” value [1] was “.218311” and the PS/cpntrol ratio was “.25”.
With Ccl4 the “FKPM LPS” value [1] was 0.7929 and the PS/cpntrol ratio was “.25”.
In the case of Gdf11, the “FKPM LPS” value [2] is reported as “.905503 FKPM”.
In the case of Pgcp, the “FKPM LPS” value [2] is reported as “.17431 FKPM”.
